The text below walks through data of the supplement of paper PMC6411743.

Sequences of proteins named here, by UniProt entry; tags and fusion partners are left off. A change or cut given only in a name is not applied to a line headed by its entry.
UniProt Q8N4V1: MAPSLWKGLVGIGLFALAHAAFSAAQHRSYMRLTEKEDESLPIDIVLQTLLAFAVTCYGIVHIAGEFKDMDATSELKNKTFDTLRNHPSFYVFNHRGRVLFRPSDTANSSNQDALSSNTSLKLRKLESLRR
UniProt Q8IYB1: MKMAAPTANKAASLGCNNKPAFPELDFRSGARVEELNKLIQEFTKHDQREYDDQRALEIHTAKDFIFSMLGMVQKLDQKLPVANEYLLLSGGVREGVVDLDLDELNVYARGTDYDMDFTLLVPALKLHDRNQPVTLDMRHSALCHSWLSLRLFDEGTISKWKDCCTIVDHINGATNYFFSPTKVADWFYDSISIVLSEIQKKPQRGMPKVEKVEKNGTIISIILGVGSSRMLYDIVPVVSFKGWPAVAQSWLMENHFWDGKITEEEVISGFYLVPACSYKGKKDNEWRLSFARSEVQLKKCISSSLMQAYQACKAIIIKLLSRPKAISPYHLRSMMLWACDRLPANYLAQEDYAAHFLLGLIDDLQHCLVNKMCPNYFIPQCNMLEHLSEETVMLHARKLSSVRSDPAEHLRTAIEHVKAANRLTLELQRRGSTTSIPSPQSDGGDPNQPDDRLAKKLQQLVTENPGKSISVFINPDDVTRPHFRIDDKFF
UniProt Q86YV0: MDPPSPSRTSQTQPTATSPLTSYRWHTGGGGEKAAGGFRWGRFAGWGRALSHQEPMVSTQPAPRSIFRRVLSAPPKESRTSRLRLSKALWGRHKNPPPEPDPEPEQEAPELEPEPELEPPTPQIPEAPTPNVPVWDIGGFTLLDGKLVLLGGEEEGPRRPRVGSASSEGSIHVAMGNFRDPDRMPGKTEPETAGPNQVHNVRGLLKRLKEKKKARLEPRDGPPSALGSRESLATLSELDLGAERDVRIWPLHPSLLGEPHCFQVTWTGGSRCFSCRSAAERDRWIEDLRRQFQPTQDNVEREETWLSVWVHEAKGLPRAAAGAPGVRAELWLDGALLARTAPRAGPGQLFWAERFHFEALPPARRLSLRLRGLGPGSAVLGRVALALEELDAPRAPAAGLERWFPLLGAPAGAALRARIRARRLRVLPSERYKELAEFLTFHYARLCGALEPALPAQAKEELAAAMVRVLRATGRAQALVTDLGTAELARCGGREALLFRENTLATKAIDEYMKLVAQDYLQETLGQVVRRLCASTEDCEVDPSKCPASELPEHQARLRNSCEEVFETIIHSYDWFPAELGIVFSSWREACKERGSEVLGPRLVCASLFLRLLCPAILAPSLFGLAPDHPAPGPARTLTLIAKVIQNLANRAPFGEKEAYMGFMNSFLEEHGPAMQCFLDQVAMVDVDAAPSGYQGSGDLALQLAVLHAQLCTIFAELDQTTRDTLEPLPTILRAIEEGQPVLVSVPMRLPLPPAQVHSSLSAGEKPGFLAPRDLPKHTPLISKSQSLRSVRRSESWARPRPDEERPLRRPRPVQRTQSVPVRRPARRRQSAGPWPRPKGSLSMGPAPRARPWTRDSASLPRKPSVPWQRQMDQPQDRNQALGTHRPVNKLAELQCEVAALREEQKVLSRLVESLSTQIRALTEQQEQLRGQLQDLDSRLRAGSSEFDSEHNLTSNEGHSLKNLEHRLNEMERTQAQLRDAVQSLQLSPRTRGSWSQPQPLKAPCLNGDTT
UniProt Q86W92: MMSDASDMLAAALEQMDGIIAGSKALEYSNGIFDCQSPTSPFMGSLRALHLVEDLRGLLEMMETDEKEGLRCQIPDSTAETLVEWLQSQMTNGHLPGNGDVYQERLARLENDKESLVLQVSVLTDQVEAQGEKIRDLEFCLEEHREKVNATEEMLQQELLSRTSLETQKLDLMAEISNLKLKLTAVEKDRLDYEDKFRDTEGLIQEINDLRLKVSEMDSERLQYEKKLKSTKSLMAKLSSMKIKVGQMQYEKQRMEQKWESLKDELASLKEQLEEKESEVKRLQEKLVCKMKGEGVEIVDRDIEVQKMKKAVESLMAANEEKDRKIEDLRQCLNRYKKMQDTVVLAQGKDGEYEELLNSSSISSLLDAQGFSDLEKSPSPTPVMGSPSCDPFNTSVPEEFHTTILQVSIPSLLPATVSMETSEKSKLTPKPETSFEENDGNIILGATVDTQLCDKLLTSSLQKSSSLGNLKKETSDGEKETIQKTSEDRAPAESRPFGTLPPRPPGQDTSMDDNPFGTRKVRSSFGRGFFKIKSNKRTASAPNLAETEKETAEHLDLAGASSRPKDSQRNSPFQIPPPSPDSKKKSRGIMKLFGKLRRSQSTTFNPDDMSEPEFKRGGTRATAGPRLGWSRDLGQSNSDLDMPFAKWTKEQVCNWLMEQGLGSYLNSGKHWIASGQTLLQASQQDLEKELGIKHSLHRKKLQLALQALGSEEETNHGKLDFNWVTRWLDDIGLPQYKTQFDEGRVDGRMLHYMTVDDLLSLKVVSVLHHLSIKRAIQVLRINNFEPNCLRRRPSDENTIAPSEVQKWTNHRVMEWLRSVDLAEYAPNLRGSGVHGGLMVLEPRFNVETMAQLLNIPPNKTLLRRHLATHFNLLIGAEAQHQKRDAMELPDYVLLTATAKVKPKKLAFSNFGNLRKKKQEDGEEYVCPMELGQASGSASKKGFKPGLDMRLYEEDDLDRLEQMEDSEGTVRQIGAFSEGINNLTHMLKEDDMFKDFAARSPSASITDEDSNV
UniProt Q8N697: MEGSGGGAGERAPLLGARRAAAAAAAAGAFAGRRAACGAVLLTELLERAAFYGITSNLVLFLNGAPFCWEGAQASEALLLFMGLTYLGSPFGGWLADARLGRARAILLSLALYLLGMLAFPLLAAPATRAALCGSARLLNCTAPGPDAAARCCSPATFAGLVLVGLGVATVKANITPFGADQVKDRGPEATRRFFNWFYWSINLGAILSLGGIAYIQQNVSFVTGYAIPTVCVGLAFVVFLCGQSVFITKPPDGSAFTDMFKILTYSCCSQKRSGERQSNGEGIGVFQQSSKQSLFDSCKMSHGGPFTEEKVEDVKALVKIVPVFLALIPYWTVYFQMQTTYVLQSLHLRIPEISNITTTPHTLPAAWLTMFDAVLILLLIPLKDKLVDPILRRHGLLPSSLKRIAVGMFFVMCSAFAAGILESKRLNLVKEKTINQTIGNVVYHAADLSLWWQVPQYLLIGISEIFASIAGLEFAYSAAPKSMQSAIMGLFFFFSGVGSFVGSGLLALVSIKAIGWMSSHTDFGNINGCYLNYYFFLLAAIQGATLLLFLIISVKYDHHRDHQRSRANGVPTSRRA
UniProt Q8NBL1: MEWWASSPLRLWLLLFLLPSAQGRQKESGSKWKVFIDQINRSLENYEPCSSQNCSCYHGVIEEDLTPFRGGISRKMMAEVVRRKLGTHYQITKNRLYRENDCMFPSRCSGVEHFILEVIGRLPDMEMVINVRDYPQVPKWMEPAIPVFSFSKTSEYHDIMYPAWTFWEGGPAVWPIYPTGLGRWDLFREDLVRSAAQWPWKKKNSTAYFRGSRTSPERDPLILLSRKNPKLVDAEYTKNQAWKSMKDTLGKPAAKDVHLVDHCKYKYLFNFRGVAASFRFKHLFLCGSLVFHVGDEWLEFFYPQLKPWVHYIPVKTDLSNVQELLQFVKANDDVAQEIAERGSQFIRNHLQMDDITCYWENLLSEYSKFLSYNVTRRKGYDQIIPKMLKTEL
UniProt Q8IYQ7: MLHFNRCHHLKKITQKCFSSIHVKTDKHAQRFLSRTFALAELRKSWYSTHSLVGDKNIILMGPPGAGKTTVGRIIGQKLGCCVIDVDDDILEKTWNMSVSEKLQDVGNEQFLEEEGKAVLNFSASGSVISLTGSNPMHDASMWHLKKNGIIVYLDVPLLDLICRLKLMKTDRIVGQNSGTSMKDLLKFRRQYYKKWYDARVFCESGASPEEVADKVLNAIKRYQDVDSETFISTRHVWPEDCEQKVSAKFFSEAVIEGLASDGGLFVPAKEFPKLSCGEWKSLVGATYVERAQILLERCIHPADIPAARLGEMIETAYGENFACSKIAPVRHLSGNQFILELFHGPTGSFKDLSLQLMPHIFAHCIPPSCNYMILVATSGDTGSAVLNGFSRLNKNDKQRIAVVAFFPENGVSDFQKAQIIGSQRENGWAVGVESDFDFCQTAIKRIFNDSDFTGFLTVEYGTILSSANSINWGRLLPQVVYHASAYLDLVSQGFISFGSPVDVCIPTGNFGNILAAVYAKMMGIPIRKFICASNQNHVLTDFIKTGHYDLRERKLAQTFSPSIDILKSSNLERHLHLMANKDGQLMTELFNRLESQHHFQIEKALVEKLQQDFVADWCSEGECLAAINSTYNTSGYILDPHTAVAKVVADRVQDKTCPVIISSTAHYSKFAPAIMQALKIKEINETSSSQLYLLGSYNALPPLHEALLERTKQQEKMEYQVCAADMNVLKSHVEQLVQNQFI
UniProt Q8IWJ2: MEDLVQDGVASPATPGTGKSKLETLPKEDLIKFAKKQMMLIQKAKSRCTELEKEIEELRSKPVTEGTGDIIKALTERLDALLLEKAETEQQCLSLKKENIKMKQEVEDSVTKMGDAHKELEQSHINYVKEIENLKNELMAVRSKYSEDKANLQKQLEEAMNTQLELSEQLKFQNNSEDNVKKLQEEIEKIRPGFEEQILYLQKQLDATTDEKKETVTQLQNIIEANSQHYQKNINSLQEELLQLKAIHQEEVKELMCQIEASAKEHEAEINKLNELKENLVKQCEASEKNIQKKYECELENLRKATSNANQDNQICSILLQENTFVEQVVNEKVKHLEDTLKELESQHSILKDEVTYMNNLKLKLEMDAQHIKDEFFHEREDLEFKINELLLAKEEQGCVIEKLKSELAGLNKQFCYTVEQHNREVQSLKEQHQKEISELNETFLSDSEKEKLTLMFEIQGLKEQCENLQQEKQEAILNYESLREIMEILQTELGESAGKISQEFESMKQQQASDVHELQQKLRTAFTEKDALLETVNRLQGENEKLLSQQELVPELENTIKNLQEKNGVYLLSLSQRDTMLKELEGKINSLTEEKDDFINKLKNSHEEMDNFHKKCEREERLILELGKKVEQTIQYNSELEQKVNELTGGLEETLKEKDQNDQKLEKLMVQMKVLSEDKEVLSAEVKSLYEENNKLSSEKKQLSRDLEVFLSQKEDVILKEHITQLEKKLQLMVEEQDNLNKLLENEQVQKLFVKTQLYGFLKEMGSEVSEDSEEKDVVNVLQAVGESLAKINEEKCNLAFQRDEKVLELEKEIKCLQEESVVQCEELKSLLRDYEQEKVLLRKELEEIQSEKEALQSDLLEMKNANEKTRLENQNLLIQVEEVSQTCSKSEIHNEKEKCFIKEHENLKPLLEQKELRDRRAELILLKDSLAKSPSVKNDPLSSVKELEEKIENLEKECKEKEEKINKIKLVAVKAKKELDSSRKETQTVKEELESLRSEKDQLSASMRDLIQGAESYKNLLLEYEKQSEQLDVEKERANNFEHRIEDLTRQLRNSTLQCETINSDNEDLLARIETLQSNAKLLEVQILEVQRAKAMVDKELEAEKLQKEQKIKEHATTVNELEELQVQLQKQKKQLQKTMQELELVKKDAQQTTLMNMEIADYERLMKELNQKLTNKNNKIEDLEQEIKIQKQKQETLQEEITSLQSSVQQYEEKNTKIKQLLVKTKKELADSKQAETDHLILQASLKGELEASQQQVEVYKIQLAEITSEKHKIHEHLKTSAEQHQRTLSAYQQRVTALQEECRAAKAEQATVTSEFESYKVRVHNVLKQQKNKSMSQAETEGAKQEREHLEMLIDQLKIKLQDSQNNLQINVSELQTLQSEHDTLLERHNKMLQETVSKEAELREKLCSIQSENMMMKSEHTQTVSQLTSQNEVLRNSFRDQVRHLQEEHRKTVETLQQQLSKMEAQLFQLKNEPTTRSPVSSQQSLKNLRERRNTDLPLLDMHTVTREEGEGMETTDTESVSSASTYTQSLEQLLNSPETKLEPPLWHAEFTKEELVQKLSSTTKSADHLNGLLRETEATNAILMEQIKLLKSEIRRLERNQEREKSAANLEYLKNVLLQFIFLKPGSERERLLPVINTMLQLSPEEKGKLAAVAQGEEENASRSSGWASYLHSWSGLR
UniProt Q86UY8: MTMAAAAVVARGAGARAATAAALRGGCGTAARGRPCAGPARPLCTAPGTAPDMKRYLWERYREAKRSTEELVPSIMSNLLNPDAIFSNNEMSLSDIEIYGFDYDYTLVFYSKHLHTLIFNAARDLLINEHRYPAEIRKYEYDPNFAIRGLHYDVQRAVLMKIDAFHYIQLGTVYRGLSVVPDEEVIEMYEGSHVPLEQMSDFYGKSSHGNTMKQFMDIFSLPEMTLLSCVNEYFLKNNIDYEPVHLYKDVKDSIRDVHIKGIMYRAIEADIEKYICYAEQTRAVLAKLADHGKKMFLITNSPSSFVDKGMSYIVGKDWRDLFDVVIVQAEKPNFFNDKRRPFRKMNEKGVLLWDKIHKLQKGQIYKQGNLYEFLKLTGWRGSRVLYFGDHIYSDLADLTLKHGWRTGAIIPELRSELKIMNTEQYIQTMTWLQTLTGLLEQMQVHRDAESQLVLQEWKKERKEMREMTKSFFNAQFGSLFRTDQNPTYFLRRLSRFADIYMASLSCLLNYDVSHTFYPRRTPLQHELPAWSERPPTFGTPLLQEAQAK

± gives the standard deviation of the averaged measurements. The list shows a part of the results, in another mix than the full data. Small differences around the control level are noise.

Compound in the test: Nc1ncnc2c1ncn2[C@@H]1O[C@H](COP(=O)(O)OP(=O)(O)NP(=O)(O)O)[C@@H](O)[C@H]1O [adenylyl imidodiphosphate]
Kind of test: NP40-soluble protein abundance relative to vehicle (solubility fold change) (ratio); higher = more soluble protein in presence of AMP-PNP. The essentials:
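Data come from three independent experiments in which Dounce-homogenised Jurkat crude lysate was treated at eight concentrations from 0.1 to 10 mM. Treatment ran 10 min at room temperature and then 3 min at 37 °C, after which 0.8% NP40 and benzonase were added for 60 min at 4 °C before ultracentrifugation. The supernatant underwent TMT labelling and LC-MS/MS, and vsn-normalised intensities were expressed as fold change against the detergent-processed vehicle in each replicate.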

Take LMTK2 (UniProt Q8IWU2): the NP40-soluble protein abundance is, setting by setting: (concentration: 0.1mM) 1.02 ± 0.042; (concentration: 0.5mM) 1.01 ± 0.015.
In the same order, the values of LNX2 (UniProt Q8N448) are 1 ± 0.02 and 1.01 ± 0.026.
UniProt Q8NB15-2|Q8NB15: the NP40-soluble protein abundance runs as follows: (concentration: 0.1mM) 0.9923 ± 0.0067; (concentration: 0.5mM) 1.02 ± 0.027.
The corresponding values for UniProt Q7Z6L1 and related entries are 0.964 ± 0.031 and 0.948 ± 0.036.
In the same order, the values of UniProt Q8N9V3 and related entries are 0.967 ± 0.011 and 0.967 ± 0.049.
In the same order, the values of AACS (UniProt Q86V21) are 0.979 ± 0.026 and 0.945 ± 0.05.
On to UniProt Q8N4V1 and related entries, for which the NP40-soluble protein abundance (concentration: 0.1mM) came out at 0.994 ± 0.02 and the NP40-soluble protein abundance (concentration: 0.5mM) is 1.03 ± 0.031.
With UniProt Q7Z7A3, the NP40-soluble protein abundance (concentration: 0.1mM) is 1.01 ± 0.027 and the NP40-soluble protein abundance (concentration: 0.5mM) is 1.012 ± 0.0056.
The corresponding values for LRRC47 (UniProt Q8N1G4) are 0.99 ± 0.016 and 0.985 ± 0.04.
Consider DCP1B (UniProt Q8IZD4), for which the NP40-soluble protein abundance by setting is: (concentration: 0.1mM) 1.01 ± 0.015; (concentration: 0.5mM) 0.964 ± 0.019.
In the same order, the values of UniProt Q8NBN3 and related entries are 0.979 ± 0.024 and 0.9694 ± 0.0032.
Turning to UniProt Q8IYB1, the NP40-soluble protein abundance (concentration: 0.1mM) worked out at 0.998 ± 0.036 and the NP40-soluble protein abundance (concentration: 0.5mM) is 1.01 ± 0.027.
On to GDPD1 (UniProt Q8N9F7), for which the NP40-soluble protein abundance runs as follows: (concentration: 0.1mM) 0.994 ± 0.044; (concentration: 0.5mM) 1.01 ± 0.02.
In the same order, the values of UniProt Q86UE8-2|Q86UE8-3|J3QLK5 are 1.01 ± 0.042 and 1.01 ± 0.026.
The corresponding values for UniProt Q8IUH4 and related entries are 1 ± 0.056 and 0.963 ± 0.065.
In the same order, the values of UniProt Q8IWD4 and related entries are 0.985 ± 0.017 and 0.994 ± 0.042.
As for UniProt Q8IUF8 and related entries, the NP40-soluble protein abundance was found to be 1.01 ± 0.018 (concentration: 0.1mM) and 1.01 ± 0.033 (concentration: 0.5mM).
In the same order, the values of INTS1 (UniProt Q8N201) are 1.04 ± 0.013 and 1.02 ± 0.055.
Take UniProt Q8N9B5 and related entries: the NP40-soluble protein abundance was 1.03 ± 0.046 (concentration: 0.1mM) and 1.02 ± 0.036 (concentration: 0.5mM).
The corresponding values for UniProt Q7Z7F0 are 0.995 ± 0.083 and 1.02 ± 0.063.
Regarding “UniProt Q8IXQ6-2|Q8IXQ6-3|G5E9U8 and related entries”, the NP40-soluble protein abundance is, setting by setting: (concentration: 0.1mM) 0.999 ± 0.049; (concentration: 0.5mM) 0.978 ± 0.063.
For TTC5 (UniProt Q8N0Z6), the NP40-soluble protein abundance runs as follows: (concentration: 0.1mM) 1.01 ± 0.026; (concentration: 0.5mM) 1 ± 0.054.
Regarding UniProt Q8IUQ4 and related entries, the NP40-soluble protein abundance (concentration: 0.1mM) was determined as 1.01 ± 0.024 and the NP40-soluble protein abundance (concentration: 0.5mM) amounted to 1.01 ± 0.02.
In the same order, the values of RASAL3 (UniProt Q86YV0) are 1.04 ± 0.028 and 1.01 ± 0.0086.
The corresponding values for UniProt Q8IX90 are 1.016 ± 0.005 and 1.03 ± 0.038.
In the same order, the values of GALNT12 (UniProt Q8IXK2) are 1 ± 0.055 and 0.972 ± 0.037.
With UniProt Q86VN1 and related entries, the NP40-soluble protein abundance is, setting by setting: (concentration: 0.1mM) 1.02 ± 0.035; (concentration: 0.5mM) 1.01 ± 0.057.
In the same order, the values of UniProt Q86WV1 and related entries are 0.992 ± 0.051 and 0.988 ± 0.058.
The corresponding values for UniProt Q8NB78 are 1 ± 0.041 and 0.962 ± 0.021.
The corresponding values for NDUFAF2 (UniProt Q8N183) are 1.01 ± 0.099 and 1.05 ± 0.1.
Consider DCUN1D3 (UniProt Q8IWE4), for which the NP40-soluble protein abundance worked out at 1 ± 0.035 (concentration: 0.1mM) and 0.972 ± 0.036 (concentration: 0.5mM).
In the same order, the values of RDH13 (UniProt Q8NBN7) are 0.979 ± 0.011 and 1 ± 0.029.
Regarding UniProt Q86UX7 and related entries, the NP40-soluble protein abundance turned out to be 1.04 ± 0.037 (concentration: 0.1mM) and 0.998 ± 0.11 (concentration: 0.5mM).
The corresponding values for UniProt Q86U86 and related entries are 1.015 ± 0.0024 and 1.02 ± 0.012.
Consider SMC5 (UniProt Q8IY18), for which the NP40-soluble protein abundance is 0.989 ± 0.013 (concentration: 0.1mM) and 0.991 ± 0.024 (concentration: 0.5mM).
The corresponding values for UniProt Q86X83 and related entries are 1.03 ± 0.017 and 0.991 ± 0.071.
In the same order, the values of ARFGAP1 (UniProt Q8N6T3) are 0.997 ± 0.031 and 1 ± 0.042.
Turning to TXNDC5 (UniProt Q8NBS9), the NP40-soluble protein abundance stood at 0.966 ± 0.033 (concentration: 0.1mM) and 0.995 ± 0.048 (concentration: 0.5mM).
On to GLRX5 (UniProt Q86SX6), for which the NP40-soluble protein abundance by setting is: (concentration: 0.1mM) 0.983 ± 0.023; (concentration: 0.5mM) 1.08 ± 0.064.
Turning to TTC39C (UniProt Q8N584), the NP40-soluble protein abundance (concentration: 0.1mM) worked out at 0.961 ± 0.018 and the NP40-soluble protein abundance (concentration: 0.5mM) came to 0.984 ± 0.036.
On to UniProt Q86W92 and related entries, for which the NP40-soluble protein abundance turned out to be 1.02 ± 0.012 (concentration: 0.1mM) and 1.03 ± 0.017 (concentration: 0.5mM).
With UniProt Q8NBU5, the NP40-soluble protein abundance is 1.01 ± 0.026 (concentration: 0.1mM) and 1.04 ± 0.012 (concentration: 0.5mM).
The corresponding values for SLC15A4 (UniProt Q8N697) are 0.989 ± 0.015 and 0.967 ± 0.021.
In the same order, the values of UniProt Q8NBL1 are 0.997 ± 0.019 and 0.997 ± 0.016.
In the same order, the values of FTSJ3 (UniProt Q8IY81) are 0.982 ± 0.026 and 1 ± 0.058.
On to PELP1 (UniProt Q8IZL8), for which the NP40-soluble protein abundance is 0.999 ± 0.024 (concentration: 0.1mM) and 0.989 ± 0.029 (concentration: 0.5mM).
The corresponding values for UniProt Q8IU60 and related entries are 0.981 ± 0.04 and 0.99 ± 0.035.
The corresponding values for UniProt Q8N3X1 and related entries are 0.983 ± 0.028 and 1.04 ± 0.045.
The corresponding values for KRI1 (UniProt Q8N9T8) are 0.992 ± 0.015 and 1.03 ± 0.034.
As to UniProt Q8IVW6 and related entries, the NP40-soluble protein abundance runs as follows: (concentration: 0.1mM) 1.06 ± 0.063; (concentration: 0.5mM) 1.01 ± 0.076.
As for DDX60 (UniProt Q8IY21), the NP40-soluble protein abundance (concentration: 0.1mM) amounted to 1.04 ± 0.083 and the NP40-soluble protein abundance (concentration: 0.5mM) came out at 1.05 ± 0.082.
On to NHLRC2 (UniProt Q8NBF2), for which the NP40-soluble protein abundance is, setting by setting: (concentration: 0.1mM) 1 ± 0.024; (concentration: 0.5mM) 0.994 ± 0.024.
As to MRPL50 (UniProt Q8N5N7), the NP40-soluble protein abundance runs as follows: (concentration: 0.1mM) 1.06 ± 0.038; (concentration: 0.5mM) 1.05 ± 0.068.
The corresponding values for UniProt Q8N573 and related entries are 0.964 ± 0.025 and 0.96 ± 0.025.
The corresponding values for THNSL1 (UniProt Q8IYQ7) are 1 ± 0.044 and 0.987 ± 0.05.
For the target UniProt Q86X10 and related entries, the NP40-soluble protein abundance runs as follows: (concentration: 0.1mM) 1.03 ± 0.04; (concentration: 0.5mM) 0.976 ± 0.046.
The corresponding values for CAND1 (UniProt Q86VP6) are 1.01 ± 0.04 and 1 ± 0.03.
In the same order, the values of GCC2 (UniProt Q8IWJ2) are 0.985 ± 0.023 and 0.992 ± 0.038.
In the same order, the values of ITPRIP (UniProt Q8IWB1) are 0.991 ± 0.025 and 0.994 ± 0.028.
For the target UniProt Q86UY8 and related entries, the NP40-soluble protein abundance (concentration: 0.1mM) was 1 ± 0.028 and the NP40-soluble protein abundance (concentration: 0.5mM) turned out to be 1.01 ± 0.029.
